These are yes or no findings as the source states them, for the method shown. Some entries that bind do so weakly or less than the wild type. Where a sequence is shown, tags or fusion partners need not be part of it.
T1: IMP321 (recombinant soluble human LAG-3Ig fusion protein) (human) (UniProt P18627)
T1 sequence (looked up): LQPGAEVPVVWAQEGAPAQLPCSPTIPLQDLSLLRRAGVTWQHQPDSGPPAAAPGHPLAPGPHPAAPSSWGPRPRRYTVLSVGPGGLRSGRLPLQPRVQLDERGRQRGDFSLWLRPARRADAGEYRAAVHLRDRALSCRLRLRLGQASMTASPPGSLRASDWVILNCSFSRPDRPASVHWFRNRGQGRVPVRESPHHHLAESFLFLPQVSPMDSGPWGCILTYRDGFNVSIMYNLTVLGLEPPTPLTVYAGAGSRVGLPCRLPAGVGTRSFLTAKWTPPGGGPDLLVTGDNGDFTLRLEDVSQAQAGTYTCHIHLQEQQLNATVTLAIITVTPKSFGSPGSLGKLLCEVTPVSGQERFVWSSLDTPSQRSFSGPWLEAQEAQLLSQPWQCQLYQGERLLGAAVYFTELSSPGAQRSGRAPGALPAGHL

B1: humanized 13E2 monoclonal antibody IMP761 (antibody, human IgG4 S228P, kappa, V domains shown)
VH: QITLKESGPTLVKPTQTLTLTCTFSGFSLSTSGMGLGWIRQPPGKTLEWLTHIWWDDIKRYNPDLRSRLSITKDTSKNQVVLTMTNMDPLDTGTYYCARIVEGSYSSSYFDVWGQGTLVTVSS
VL: DIVMTQTPSSLSASVGDRVTITCKASQDVIFDVAWYQQRPGQAPKLLIYSASSRVSGVPSRFSGSGSGTDFTLTISSLQPEDFATYYCQQHYSTPYTFGQGTRLDIKR
notes: Human IgG4 (S228P) with kappa light chain; also called humanized 13E2 IgG4; VH4/VL3
B2: chimeric 13E2-human IgG4 antibody Chim13E2IgG4 (antibody, V domains shown)
VH: QVTLKESGPGILQPSQTLSLTCSFSGFSLSTSGMGLGWIRQPSGKGLEWLTHIWWDDIKRYNPDLRSRLTISKDTSSSQIFLKIASVDTADTATYYCARIVEGSYSSSYFDVWGAGTTVTVSS
VL: DIVMTQPHKFMSTSVEDRVTITCKASQDVIFDVAWYQQKPGQSPKLLIYSASSRVSGVPDRFTGSGSGTDFTFTISSVQAEDLAVYYCQQHYSTPYTFGGGTTLEIKR
notes: The light chain is the 13E2 VL with wild-type human kappa; also called chimeric 13E2 IgG4; heavy chain 13E2IgG4mut

Molecular target: T1, IMP321 (recombinant soluble human LAG-3Ig fusion protein) (human)
Assay: Biacore SPR

Row | Binder | binding
1 | B1 | binds
2 | B2 | binds

Source: US20190153112A1 (IMMUTEP S A S, published 2019)
